These are yes or no findings as the source states them, for the method shown. Binding seen in cells or lysates may run through a third protein. Some binding calls cover weakened binding; strength is not graded here.
What was measured:
[1] = target: GFP-Nav1.2 (encoded by Scn2a) (UniProt B1AWN6); assay: co-IP; GFP-Trap magnetic particles on lysates of HEK293T cells expressing GFP or GFP-Scn2a alone or co-expressed with HA-Sin1; CHAPS lysis buffer (40 mM HEPES pH 7.5, 120 mM NaCl, 0.3% CHAPS), 4 C, 1 h or overnight; blots for GFP, Raptor, Rictor, beta-actin
[2] = target: HA-Sin1 (mitogen-activated protein kinase associated protein 1) (UniProt Q9BPZ7); assay: co-IP; anti-HA magnetic beads on lysates of HEK293T cells co-expressing GFP-Scn2a and HA-Sin1; CHAPS lysis buffer (40 mM HEPES pH 7.5, 120 mM NaCl, 0.3% CHAPS), 4 C, 1 h or overnight; blots for GFP, HA, Raptor, Rictor, beta-actin

Chains of the proteins cited; added tags and fusions are not shown.
UniProt B1AWN6: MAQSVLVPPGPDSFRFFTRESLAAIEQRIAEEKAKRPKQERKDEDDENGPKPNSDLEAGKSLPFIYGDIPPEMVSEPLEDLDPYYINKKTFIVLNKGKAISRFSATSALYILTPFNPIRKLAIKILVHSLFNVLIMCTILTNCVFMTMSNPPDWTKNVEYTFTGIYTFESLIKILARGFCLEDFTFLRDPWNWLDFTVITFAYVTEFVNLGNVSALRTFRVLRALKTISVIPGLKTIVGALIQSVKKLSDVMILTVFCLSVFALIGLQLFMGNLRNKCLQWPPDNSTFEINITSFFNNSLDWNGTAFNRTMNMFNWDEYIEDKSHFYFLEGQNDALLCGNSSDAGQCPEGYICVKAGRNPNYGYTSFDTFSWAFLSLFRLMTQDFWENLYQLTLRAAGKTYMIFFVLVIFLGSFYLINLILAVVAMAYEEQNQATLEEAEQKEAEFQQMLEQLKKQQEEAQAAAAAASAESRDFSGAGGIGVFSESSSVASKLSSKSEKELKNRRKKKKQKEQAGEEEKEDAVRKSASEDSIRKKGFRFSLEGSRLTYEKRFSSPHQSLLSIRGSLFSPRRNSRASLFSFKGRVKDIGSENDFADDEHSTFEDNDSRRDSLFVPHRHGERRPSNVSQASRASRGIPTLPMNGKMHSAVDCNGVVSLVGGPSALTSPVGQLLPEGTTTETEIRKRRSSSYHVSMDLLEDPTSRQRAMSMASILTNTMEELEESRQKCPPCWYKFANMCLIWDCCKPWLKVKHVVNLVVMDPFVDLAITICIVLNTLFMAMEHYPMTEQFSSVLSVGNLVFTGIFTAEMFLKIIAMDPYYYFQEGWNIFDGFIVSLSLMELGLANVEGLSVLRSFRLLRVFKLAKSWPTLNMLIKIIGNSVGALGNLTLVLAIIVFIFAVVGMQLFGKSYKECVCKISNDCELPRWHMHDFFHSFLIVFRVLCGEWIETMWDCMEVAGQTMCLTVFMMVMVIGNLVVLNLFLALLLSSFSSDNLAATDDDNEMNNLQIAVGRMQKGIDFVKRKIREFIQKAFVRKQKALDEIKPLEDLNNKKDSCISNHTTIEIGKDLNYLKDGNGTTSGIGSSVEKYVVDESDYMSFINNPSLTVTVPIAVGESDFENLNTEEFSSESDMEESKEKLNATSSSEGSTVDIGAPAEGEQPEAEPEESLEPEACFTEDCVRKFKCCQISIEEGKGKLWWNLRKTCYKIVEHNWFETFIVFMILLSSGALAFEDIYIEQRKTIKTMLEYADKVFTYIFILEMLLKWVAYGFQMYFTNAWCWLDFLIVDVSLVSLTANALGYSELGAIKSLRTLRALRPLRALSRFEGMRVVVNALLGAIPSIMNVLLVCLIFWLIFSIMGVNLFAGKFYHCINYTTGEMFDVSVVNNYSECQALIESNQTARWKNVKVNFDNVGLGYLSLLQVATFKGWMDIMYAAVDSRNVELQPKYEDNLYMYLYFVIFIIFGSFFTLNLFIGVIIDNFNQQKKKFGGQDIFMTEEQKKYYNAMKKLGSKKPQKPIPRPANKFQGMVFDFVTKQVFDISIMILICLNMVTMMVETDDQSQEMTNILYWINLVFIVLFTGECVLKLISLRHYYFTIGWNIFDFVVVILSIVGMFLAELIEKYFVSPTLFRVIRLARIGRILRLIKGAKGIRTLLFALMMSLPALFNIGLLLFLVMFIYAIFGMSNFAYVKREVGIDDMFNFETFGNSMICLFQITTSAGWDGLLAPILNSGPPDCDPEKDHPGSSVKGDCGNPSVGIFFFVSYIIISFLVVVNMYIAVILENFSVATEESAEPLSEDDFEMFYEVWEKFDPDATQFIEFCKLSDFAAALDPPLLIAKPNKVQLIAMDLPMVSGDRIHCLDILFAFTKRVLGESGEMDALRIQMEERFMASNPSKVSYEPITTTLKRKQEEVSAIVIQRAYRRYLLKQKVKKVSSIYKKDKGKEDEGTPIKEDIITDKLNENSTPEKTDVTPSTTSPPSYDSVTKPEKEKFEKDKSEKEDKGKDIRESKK
UniProt Q9BPZ7: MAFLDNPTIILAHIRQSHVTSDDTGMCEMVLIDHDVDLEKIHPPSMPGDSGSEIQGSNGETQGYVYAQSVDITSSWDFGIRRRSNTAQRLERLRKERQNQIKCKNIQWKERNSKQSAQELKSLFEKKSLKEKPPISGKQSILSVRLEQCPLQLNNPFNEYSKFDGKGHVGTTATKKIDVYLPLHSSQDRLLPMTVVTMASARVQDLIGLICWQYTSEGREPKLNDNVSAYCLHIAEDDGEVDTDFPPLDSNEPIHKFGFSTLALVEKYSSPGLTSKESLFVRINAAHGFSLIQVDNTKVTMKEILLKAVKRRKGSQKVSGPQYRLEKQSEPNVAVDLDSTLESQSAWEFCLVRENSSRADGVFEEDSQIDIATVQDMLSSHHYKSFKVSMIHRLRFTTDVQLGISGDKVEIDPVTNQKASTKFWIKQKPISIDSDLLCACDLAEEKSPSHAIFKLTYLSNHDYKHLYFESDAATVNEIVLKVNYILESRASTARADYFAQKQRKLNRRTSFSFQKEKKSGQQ
UniProt Q8N122: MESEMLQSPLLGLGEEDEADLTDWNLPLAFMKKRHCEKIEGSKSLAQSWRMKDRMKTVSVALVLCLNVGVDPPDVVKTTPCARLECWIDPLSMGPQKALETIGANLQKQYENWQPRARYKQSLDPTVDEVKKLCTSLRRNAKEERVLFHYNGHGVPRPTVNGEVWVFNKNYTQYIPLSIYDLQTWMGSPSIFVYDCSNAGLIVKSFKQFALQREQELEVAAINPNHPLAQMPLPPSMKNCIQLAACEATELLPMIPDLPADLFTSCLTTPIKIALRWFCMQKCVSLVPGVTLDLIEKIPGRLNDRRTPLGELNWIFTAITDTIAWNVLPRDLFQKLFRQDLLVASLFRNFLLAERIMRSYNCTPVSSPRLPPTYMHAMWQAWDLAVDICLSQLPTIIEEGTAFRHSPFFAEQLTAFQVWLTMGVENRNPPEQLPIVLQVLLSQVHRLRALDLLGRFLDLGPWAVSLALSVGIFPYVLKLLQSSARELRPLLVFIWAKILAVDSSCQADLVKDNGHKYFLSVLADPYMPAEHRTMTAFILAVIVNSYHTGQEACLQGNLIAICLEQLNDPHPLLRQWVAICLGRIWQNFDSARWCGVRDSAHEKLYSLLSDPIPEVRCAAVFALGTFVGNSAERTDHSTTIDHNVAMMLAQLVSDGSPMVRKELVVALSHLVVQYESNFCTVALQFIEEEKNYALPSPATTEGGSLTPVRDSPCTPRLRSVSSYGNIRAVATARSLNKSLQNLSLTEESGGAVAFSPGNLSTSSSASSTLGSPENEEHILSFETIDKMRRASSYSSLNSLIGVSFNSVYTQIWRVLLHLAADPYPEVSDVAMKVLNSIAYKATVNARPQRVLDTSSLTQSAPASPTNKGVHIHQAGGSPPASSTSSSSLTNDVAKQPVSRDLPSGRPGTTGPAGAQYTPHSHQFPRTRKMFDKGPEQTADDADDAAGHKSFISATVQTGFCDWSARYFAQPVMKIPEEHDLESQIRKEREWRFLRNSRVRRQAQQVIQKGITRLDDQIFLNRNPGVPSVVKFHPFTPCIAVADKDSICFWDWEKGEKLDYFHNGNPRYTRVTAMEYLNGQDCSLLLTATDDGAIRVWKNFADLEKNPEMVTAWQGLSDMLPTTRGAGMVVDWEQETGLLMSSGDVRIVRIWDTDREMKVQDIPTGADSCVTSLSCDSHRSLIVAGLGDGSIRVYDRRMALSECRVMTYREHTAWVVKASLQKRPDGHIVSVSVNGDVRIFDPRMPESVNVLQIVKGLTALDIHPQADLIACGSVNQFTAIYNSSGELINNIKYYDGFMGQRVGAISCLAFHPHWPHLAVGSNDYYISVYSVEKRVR

| Substance | binding [1] | binding [2] |
| --- | --- | --- |
| Raptor (regulatory-associated protein of mTOR) (from UniProt Q8N122 1-1335) | no binding |  |
| GFP-Nav1.2 (encoded by Scn2a) (from UniProt B1AWN6 1-2006) |  | binds |

Source: article PMC10645975
